Results: the supplement of paper PMC10849652
The other results are listed elsewhere or left out.

By UniProt entry, the sequences of proteins in these tests, tags left out. Where a name states a change or a piece, a line headed by the entry shows the natural chain unless it says otherwise.
UniProt O15021: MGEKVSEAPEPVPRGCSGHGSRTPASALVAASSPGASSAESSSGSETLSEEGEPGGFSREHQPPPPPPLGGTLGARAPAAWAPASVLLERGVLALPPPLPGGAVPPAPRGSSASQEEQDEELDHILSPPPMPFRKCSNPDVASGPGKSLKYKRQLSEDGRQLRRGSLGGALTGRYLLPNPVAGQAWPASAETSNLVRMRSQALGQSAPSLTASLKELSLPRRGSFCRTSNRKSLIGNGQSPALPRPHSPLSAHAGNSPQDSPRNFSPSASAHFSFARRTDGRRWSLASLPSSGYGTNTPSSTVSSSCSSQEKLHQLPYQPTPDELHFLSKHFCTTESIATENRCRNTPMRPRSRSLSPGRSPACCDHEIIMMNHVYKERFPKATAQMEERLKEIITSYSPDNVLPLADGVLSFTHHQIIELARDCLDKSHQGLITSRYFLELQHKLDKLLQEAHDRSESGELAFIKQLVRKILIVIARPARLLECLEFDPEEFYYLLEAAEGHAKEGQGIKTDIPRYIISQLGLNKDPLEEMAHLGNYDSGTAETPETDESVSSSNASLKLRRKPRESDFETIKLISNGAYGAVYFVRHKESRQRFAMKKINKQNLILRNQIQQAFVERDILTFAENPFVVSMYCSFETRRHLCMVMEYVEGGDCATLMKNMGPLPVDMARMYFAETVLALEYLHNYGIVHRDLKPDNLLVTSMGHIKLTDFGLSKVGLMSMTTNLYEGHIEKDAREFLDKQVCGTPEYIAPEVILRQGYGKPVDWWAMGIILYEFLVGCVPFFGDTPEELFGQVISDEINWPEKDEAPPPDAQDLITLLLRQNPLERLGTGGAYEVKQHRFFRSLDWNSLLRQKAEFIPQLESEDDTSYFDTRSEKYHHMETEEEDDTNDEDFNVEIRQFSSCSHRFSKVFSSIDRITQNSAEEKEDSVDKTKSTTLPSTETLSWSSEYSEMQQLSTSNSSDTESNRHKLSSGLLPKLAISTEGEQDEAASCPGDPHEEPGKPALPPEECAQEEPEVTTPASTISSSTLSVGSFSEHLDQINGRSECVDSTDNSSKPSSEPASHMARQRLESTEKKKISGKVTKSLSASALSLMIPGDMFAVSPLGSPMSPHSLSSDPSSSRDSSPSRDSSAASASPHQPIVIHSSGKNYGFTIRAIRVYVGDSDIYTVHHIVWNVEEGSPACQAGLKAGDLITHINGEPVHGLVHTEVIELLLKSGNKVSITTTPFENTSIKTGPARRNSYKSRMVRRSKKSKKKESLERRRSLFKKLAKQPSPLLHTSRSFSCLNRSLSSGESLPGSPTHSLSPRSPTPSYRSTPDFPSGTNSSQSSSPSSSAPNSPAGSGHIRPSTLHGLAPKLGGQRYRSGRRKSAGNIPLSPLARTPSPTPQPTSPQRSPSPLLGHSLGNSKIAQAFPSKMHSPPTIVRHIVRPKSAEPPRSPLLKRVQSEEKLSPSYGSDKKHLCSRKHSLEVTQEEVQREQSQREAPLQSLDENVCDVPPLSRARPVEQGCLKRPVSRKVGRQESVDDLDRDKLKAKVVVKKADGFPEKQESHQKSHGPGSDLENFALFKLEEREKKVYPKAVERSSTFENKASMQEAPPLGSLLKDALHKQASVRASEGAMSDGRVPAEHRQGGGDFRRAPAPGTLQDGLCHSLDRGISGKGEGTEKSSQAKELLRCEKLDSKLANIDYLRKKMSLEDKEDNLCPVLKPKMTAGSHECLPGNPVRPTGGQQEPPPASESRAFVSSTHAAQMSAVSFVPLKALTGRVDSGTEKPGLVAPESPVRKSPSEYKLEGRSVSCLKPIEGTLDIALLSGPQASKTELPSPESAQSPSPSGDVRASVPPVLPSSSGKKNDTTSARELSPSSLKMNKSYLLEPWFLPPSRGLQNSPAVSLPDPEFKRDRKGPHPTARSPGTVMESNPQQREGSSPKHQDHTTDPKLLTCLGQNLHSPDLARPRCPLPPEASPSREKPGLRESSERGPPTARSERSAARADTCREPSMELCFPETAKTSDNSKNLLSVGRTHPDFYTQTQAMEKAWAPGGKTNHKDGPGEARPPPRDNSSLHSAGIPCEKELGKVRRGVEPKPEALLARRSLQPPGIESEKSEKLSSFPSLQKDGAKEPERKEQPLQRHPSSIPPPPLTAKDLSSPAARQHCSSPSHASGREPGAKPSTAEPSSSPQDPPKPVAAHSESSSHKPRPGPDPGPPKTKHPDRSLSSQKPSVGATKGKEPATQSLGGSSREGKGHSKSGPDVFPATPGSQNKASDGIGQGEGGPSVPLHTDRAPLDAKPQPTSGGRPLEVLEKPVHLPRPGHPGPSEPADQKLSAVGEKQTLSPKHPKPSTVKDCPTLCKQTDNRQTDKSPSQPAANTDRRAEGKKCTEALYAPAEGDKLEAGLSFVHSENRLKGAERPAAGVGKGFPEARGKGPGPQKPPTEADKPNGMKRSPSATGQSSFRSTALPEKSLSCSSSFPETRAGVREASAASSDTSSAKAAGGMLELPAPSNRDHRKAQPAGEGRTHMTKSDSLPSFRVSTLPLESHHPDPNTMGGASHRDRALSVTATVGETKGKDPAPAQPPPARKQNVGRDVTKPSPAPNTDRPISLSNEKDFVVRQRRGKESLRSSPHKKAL
UniProt Q9Y4F3: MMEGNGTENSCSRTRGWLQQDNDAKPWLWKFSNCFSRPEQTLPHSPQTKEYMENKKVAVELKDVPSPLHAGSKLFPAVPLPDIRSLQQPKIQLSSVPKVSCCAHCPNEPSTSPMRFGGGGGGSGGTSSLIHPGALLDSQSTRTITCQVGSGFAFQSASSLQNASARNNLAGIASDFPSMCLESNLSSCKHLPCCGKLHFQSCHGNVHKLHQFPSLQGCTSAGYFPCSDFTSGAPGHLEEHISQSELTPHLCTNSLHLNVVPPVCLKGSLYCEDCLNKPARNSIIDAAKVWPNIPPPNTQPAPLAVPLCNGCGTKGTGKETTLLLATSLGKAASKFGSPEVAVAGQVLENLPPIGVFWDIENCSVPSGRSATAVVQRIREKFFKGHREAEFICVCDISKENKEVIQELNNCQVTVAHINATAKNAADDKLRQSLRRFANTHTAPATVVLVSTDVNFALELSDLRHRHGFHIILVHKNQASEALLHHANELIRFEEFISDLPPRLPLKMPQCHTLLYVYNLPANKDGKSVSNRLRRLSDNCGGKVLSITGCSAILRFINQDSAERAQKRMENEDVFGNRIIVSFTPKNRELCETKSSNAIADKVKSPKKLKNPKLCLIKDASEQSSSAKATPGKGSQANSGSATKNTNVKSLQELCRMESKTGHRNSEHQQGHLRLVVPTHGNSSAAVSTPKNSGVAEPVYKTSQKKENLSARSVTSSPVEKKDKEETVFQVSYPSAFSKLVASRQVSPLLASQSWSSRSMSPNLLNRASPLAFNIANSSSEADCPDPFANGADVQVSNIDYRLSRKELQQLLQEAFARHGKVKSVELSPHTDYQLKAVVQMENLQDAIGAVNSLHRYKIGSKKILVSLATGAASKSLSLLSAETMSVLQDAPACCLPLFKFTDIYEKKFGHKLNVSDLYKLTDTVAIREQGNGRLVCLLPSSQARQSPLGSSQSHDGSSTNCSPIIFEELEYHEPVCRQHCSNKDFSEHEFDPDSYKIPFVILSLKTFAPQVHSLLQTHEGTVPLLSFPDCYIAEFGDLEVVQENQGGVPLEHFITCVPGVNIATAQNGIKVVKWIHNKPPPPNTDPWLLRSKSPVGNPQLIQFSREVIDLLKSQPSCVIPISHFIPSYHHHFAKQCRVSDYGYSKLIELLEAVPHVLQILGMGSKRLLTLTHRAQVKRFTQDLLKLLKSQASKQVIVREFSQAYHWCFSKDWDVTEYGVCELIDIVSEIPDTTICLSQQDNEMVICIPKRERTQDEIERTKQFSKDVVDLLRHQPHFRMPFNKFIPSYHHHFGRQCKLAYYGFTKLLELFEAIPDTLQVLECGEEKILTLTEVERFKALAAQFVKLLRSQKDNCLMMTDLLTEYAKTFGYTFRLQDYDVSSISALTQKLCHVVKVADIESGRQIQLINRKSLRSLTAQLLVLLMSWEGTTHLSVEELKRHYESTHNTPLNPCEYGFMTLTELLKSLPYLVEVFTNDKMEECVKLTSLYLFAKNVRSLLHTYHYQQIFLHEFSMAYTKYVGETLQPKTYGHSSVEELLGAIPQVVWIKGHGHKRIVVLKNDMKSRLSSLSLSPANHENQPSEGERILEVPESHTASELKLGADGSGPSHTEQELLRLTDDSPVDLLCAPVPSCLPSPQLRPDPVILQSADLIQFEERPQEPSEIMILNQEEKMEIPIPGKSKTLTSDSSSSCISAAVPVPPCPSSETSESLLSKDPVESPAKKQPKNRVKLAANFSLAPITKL
UniProt Q86V48: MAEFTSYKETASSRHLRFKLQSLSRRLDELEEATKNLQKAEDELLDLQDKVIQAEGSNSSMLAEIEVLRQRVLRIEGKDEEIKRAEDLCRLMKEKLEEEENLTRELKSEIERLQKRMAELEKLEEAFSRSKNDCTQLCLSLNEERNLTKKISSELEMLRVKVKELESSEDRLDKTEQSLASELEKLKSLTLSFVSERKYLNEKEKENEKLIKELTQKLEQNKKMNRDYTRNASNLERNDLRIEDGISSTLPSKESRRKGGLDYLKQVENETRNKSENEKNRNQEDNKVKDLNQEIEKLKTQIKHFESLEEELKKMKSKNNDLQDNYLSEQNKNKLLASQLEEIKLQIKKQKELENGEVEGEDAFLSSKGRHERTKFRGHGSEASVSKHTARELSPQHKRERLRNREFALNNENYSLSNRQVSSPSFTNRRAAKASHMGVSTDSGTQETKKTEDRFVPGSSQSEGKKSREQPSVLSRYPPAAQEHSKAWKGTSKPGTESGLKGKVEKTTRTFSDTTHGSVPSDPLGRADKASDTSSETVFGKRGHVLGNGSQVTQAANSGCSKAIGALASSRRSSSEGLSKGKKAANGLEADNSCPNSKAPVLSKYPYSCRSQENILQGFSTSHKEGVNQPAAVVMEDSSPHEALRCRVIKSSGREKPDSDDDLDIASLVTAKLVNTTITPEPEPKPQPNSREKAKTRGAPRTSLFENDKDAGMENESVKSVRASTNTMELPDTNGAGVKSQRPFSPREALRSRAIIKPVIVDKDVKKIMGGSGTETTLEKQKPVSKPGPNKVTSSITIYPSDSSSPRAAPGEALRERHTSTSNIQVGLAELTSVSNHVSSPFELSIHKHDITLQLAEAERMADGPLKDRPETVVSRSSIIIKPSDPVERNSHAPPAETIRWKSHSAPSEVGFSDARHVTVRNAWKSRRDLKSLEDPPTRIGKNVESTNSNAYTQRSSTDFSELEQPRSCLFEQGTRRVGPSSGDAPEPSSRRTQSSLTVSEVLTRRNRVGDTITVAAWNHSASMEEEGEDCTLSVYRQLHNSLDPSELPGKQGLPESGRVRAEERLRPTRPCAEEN
UniProt P56192: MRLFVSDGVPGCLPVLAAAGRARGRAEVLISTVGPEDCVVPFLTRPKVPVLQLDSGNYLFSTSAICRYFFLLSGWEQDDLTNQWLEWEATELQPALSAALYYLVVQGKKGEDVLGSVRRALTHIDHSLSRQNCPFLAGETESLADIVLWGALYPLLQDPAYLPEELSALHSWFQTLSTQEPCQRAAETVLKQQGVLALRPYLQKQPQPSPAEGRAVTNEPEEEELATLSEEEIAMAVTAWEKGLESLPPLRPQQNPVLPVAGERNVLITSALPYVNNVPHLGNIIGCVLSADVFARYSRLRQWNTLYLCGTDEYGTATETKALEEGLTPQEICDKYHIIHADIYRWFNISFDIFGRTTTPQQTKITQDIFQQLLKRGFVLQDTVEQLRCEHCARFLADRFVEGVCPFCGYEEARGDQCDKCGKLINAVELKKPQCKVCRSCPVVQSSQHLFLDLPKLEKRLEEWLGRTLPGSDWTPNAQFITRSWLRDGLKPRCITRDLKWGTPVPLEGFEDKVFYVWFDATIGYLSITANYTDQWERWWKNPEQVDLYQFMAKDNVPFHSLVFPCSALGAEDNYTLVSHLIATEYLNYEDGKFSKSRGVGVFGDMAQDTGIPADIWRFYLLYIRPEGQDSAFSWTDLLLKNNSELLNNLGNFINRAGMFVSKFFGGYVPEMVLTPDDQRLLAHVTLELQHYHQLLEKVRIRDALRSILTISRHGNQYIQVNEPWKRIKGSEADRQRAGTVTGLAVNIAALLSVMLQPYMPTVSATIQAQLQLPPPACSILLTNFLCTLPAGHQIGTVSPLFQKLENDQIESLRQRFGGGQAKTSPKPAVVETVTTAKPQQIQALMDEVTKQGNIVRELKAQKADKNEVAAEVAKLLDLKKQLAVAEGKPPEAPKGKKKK
UniProt O75608: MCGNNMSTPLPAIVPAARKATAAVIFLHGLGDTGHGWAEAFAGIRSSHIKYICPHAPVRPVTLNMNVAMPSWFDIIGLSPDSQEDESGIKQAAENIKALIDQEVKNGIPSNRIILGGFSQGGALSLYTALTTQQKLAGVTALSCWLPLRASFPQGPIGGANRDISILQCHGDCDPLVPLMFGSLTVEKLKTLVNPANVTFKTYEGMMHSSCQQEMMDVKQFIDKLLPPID

Assays:
Assay in all cases: log2 fold change, soluble protein after heating vs DMSO (PISA); higher = thermal stabilisation; K562 lysate, 10 uM; active = over 0.2 and 3.5 SD of the protein, either way, in both replicates (recomputed)
[1] = compound: NCC(=O)Nc1ccc(-n2nc(C(F)(F)F)cc2-c2ccc3c(ccc4ccccc43)c2)cc1
Procedure, shortened: (§1)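 K562 pellets were dounce-homogenised in PBS pH 7.4 with 1 mM MgCl2, and the crude extract at 1 mg/mL protein was treated with 10 μM compound for 30 min. Aliquots were heated for 3 min across 48°C-58°C, pooled, and brought to 0.5% NP-40 at 4°C; soluble protein was the supernatant after 21,000xg for 90 min. Soluble protein was quantified by TMTpro 16plex LC-MS/MS with channel sums equalised, and reported as log2 fold change in thermal stability against DMSO controls, with values from duplicates.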

vorinostat = compound: O=C(CCCCCCC(=O)Nc1ccccc1)NO [vorinostat]
Procedure, shortened: as §1

silmitasertib = compound: O=C(O)c1ccc2c(c1)nc(Nc1cccc(Cl)c1)c1ccncc12 [silmitasertib]
Procedure, shortened: as §1

[2] = compound: O=C1NC(=O)C(c2cnc3ccccn23)=C1c1cn2c3c(cc(F)cc13)CN(C(=O)N1CCCCC1)CC2
Procedure, shortened: as §1

entospletinib = compound: c1cn2cc(-c3ccc4cn[nH]c4c3)nc(Nc3ccc(N4CCOCC4)cc3)c2n1 [entospletinib]
Procedure, shortened: as §1

| Target | log2 fold change [1] | log2 fold change (vorinostat) | log2 fold change (silmitasertib) | log2 fold change [2] | log2 fold change (entospletinib) |
| --- | --- | --- | --- | --- | --- |
| MAST4 (UniProt O15021) | inactive: -0.073 | inactive: -0.381 | inactive: 0.281 | inactive: -0.025 | inactive: 0.018 |
| MARF1 (UniProt Q9Y4F3) | inactive: 0.006 | active: -0.471 | inactive: 0.003 | inactive: -0.045 | inactive: 0.049 |
| LUZP1 (UniProt Q86V48) | inactive: 0.094 | active: -0.248 | inactive: 0.129 | inactive: 0.022 | inactive: -0.03 |
| MARS (UniProt P56192) | inactive: 0.028 | inactive: -0.211 | inactive: 0.036 | inactive: 0 | inactive: 0.008 |
| MAP4 (UniProt E7EVA0) | inactive: -0.044 | inactive: 0.025 | inactive: 0.028 | inactive: 0.079 | inactive: -0.025 |
| MAP11 (UniProt Q8WVR3) | inactive: -0.017 | active: -0.488 | inactive: -0.015 | inactive: 0.056 | inactive: -0.131 |
| MARS2 (UniProt Q96GW9) | inactive: 0.002 | inactive: -0.146 | inactive: -0.009 | inactive: 0.019 | inactive: 0.022 |
| MAP2K7 isoform 4 (UniProt O14733) | inactive: 0.009 | active: -1.09 | inactive: 0.167 | inactive: -0.051 | inactive: -0.047 |
| LYPLA1 (UniProt O75608) | inactive: -0.084 | inactive: 0.085 | inactive: 0.002 | inactive: 0.008 | inactive: 0.024 |

2 entries picked at random from the list so far:

| Target | log2 fold change [1] | log2 fold change (vorinostat) | log2 fold change (silmitasertib) | log2 fold change [2] | log2 fold change (entospletinib) |
| --- | --- | --- | --- | --- | --- |
| LUZP1 (UniProt Q86V48) | inactive: 0.094 | active: -0.248 | inactive: 0.129 | inactive: 0.022 | inactive: -0.03 |
| MAST4 (UniProt O15021) | inactive: -0.073 | inactive: -0.381 | inactive: 0.281 | inactive: -0.025 | inactive: 0.018 |
